Patent US20230340112A1
These are yes or no findings as the source states them, for the method shown. Some binding calls cover weakened binding; strength is not graded here. Blank lines part the entries; values can stand above or below the binder they belong to.

Amino acid sequences for entries named in this document (tags omitted). A change or cut given only in a name is not applied to a line headed by its entry.
UniProt P78324: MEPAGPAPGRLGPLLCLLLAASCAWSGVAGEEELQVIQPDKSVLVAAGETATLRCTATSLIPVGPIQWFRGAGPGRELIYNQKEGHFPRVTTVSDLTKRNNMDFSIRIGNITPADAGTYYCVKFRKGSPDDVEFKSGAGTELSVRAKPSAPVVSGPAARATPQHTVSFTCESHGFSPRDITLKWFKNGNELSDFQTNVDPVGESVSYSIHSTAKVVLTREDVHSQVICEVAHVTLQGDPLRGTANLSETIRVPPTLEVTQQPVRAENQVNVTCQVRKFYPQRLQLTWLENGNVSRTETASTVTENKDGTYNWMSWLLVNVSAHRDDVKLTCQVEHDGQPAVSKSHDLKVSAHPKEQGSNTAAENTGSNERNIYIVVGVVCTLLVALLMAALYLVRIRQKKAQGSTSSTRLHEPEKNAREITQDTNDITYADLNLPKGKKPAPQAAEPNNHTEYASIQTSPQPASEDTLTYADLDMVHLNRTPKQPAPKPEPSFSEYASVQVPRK

Biological target: SIRPα-His (human) (UniProt P78324)
Assay: chemical cross-linking and nLC-Orbitrap MS/MS of the complex

binding: binds
B1: antibody 14H2B (antibody, V domains shown)
VH: EVQLVESGGGLVQPGGSLRLSCAASGIDLSSYSMIWVRQAPGKGLEWIGIIYTGGSTDYASWAKGRFTISRDNSKNTLYLQMNSLRAEDTAVYYCARENSHDTFDPWGQGTLVTVSS
VL: DIQMTQSPSSLSASVGDRVTITCQSSQSVYTNYQSWYQQKPGKAPKLLIYAASTLASGVPSRFSGSGSGTDFTLTISSLQPEDFATYYCLGSYVSSGWYYAFGGGTKVEIK

binding: binds
B2: antibody 89H (antibody, V domains shown)
VH: EVQLVESGGGLVQPGGSLRLSCAASGFSLSTYAMIWVRQAPGKGLEWVGIISPSGTTYYATWAKGRFTISRDNSKNTLYLQMNSLRAEDTAVYYCARAGSGGWDYFNIWGQGTLVTVSS
VL: DIQMTQSPSSLSASVGDRVTITCQASQSISSYLSWYQQKPGKAPKLLIYYASNLASGVPSRFSGSGSGTDFTLTISSLQPEDFATYYCQSYYYSNNYNWAFGGGTKVEIK
